From PMC10452424
These are yes or no findings as the source states them, for the method shown. In cells and extracts the contact can be indirect. Some results given as binding are weak or reduced against the parent protein; the word gives no strength. Where a sequence is shown, tags or fusion partners need not be part of it.

The chains behind the UniProt entries cited, without tags or fusion partners.
UniProt P38398: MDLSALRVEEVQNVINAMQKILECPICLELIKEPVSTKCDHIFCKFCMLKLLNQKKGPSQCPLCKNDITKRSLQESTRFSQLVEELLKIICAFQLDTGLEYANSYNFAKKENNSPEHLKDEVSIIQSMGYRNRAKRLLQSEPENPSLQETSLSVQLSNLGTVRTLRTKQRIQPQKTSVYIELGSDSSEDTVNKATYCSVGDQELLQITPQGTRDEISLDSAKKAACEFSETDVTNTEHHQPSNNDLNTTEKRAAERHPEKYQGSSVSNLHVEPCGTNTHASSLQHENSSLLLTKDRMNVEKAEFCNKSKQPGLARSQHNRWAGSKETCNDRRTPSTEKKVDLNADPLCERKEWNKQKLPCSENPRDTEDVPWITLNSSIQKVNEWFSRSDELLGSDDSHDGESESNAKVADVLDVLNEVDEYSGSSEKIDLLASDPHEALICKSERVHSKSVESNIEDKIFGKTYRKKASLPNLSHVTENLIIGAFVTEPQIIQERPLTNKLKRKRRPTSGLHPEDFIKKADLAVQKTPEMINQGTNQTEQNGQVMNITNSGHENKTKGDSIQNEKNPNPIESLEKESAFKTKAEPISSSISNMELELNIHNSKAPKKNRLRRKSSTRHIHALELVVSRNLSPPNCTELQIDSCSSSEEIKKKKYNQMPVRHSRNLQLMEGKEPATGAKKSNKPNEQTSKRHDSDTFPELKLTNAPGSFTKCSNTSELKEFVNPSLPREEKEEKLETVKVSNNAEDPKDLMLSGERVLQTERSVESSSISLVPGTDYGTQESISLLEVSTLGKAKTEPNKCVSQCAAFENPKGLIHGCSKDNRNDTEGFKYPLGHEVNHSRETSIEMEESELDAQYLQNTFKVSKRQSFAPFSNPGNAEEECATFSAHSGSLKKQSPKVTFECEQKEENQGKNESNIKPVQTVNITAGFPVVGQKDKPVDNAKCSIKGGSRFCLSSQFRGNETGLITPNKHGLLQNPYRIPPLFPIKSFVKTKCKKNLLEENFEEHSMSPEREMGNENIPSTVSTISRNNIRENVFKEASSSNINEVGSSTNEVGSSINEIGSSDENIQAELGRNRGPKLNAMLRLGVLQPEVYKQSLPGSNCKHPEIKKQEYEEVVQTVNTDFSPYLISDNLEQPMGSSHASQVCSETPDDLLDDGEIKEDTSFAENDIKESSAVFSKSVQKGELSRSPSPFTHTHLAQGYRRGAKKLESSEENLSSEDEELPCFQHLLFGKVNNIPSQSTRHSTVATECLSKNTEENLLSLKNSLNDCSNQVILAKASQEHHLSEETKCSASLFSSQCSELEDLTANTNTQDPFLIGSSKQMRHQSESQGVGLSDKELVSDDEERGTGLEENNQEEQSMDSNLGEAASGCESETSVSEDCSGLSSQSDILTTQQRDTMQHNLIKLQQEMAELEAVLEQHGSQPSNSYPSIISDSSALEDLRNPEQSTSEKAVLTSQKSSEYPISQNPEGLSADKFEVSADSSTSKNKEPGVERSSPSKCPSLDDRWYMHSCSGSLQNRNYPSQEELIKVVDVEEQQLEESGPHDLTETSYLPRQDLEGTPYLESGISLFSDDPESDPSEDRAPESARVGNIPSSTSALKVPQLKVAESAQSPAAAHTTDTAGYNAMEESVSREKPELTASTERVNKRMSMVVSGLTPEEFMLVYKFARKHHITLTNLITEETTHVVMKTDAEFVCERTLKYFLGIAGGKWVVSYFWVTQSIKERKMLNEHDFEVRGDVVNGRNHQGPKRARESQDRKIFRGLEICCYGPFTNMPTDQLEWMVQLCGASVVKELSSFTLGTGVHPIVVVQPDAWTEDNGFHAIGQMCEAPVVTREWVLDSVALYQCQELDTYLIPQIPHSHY

Biological target: GFP-tagged BRCA1 (UniProt P38398)
Assay: co-IP; HEK-293T cells co-transfected, lysed 24 h after transfection in modified RIPA (150 mM NaCl, 50 mM Tris pH 7.5, 1% NP-40); GFP-BRCA1 precipitated for GFP (GFP-Trap agarose beads), blot anti-HA; with or without K-Ras12V or mutant Her2 (V659E)

binding	Binder
binds	NORE1A-INT domain (AA 170-272), HA-tagged (domain or fragment, UniProt Q8WWW0-1 170-272) CSQQEGLSRDRPSPESTLTVTFSQNVCKPVEETQRPPTLQEIKQKIDSYNTREKNCLGMKLSEDGTYTGFIKVHLKLRRPVTVPAGIRPQSIYDAIKEVNLAA
binds	HA-tagged NORE1A (full-length) (protein, UniProt Q8WWW0-1 1-418) MAMASPAIGQRPYPLLLDPEPPRYLQSLSGPELPPPPPDRSSRLCVPAPLSTAPGAREGRSARRAARGNLEPPPRASRPARPLRPGLQQRLRRRPGAPRPRDVRSIFEQPQDPRVPAERGEGHCFAELVLPGGPGWCDLCGREVLRQALRCTNCKFTCHPECRSLIQLDCSQQEGLSRDRPSPESTLTVTFSQNVCKPVEETQRPPTLQEIKQKIDSYNTREKNCLGMKLSEDGTYTGFIKVHLKLRRPVTVPAGIRPQSIYDAIKEVNLAATTDKRTSFYLPLDAIKQLHISSTTTVSEVIQGLLKKFMVVDNPQKFALFKRIHKDGQVLFQKLSIADRPLYLRLLAGPDTEVLSFVLKENETGEVEWDAFSIPELQNFLTILEKEEQDKIQQVQKKYDKFRQKLEEALRESQGKPG
